Assay results as given in US4079127A, “Thymosin alpha 1” (Board of Regents of the University of Texas, priority 1977, dated 1978).
Not every detail of the peptide structures is certain; ends, links or a residue may be inferred. Ends that are not written are not given here.

Experiments:
[1] = tested on: MIF production; assay: in vitro lymphokine assay measuring MIF production; type: cell-based
[2] = slab gel isoelectric focusing; type: physicochemical; settings: slab gel isoelectric focusing at a pH range of 3-5
[3] = tested on: E-rosettes; assay: in vitro human E-rosette assay; type: cell-based
[4] = tested on: mitogen response; assay: in vivo mouse mitogen assay; settings: 14 daily injections

Ac-SDAAVDTSSEITTKDLKEKKEVVEEAEN [Thymosin α1, (N-acetyl)-Ser-Asp-Ala-Ala-Val^5 -Asp-Thr-Ser-Ser-Glu^10 -He-Thr-Thr-Lys-Asp^15 -Leu-Lys-Glu-Lys-Lys^20 -Glu-Val-Val-Glu-Glu^25 -Ala-Glu-Asn-OH]
Thymosin activity in MIF bioassay (active amount) [1]: .01 to .1 µg
isoelectric point (printed 'pH' in b10, 'pI' in b202) [2]: 4.0-4.3
isoelectric point (printed 'pH' in b10, 'pI' in b202) ([2]; listed as thymosin α1): 4-4.3
Thymosin activity in E-Rosette bioassay (active amount) [3]: .001 to .01 µg
Thymosin activity in Mitogen bioassay (active amount) [4]: .01 to .1 µg
